# Earlier results, collected in patent publication US20150065421A1, “BASAL INSULIN THERAPY” (SANOFI, priority 2012, published 2015).
# At least one structure is not confirmed: it was looked up by name or label, or the drawing left a doubt.
# System: people with established diabetes and high CV risk
# Settings: pioglitazone versus placebo; 2.9 years of follow-up; cited from earlier work
structure (smiles),measurement,value
CCc1ccc(CCOc2ccc(CC3SC(=O)NC3=O)cc2)nc1 (stereo not shown) [pioglitazone],"reduction in myocardial infarction, stroke or CV death",16%
